Measurements as given in US8034931B2, “Process for producing substituted aminoquinazolinone derivative, intermediate therefor, and pest control agent” (Nihon Nohyaku Co., Ltd., priority 2003, dated 2011).
Some of these results come from one statement about several compounds together.

System: White Peach Scale (Pseudaulacaspis pentagona)
Assay: Insecticidal effect on white peach scale, sprayed potato tuber (Test Examples 3 and 5)
Assay type: in vivo
Details: 30 ppm liquid chemical, otherwise same as Test Example 3
Text: Insecticidal Effect on White Peach Scale (Pseudaulacaspis pentagona)
A preparation containing each compound of the present invention listed in Tables 2 to 4 or each comparative compound as an active ingredient was dispersed in and diluted with water to obtain a 100 ppm liquid chemical. A potato tuber with first-instar larvae of white peach scale as parasites was sprayed with the liquid chemical with a spray gun. Fourteen days after the treatment, the living insects were counted. In the same manner as in Test Example 2, the corrected mortality was calculated and the insecticidal effect was judged.
Insecticidal Effect on White Peach Scale (Pseudaulacaspis pentagona) at a Low Dosage
The same test as in Test Example 3 was carried out except for changing the concentration of the liquid chemical to 30 ppm.

CC(=O)N1C(=O)N(N=Cc2cccnc2)Cc2ccccc21 [A, 1-acetyl-3-(3-pyridylmethylideneamino)-3,4-dihydro-2(1H)-quinazolinone, reference compound]
Test Example 5: controlling effect at a low dosage (corrected mortality): D (Corrected mortality 79-50%)

CC(=O)N1C(=O)N(NCc2cccnc2)Cc2cc(Br)ccc21 [B, 1-acetyl-3-(3-pyridylmethylamino)-3,4-dihydro-6-bromo-2(1H)-quinazolinone, reference compound]
Test Example 5: controlling effect at a low dosage (corrected mortality): D (Corrected mortality 79-50%)
